Data as given in PubChem BioAssay AID1053208 (Peter MacCallum Cancer Centre, 2014)

Assay: 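Synthetic lethal interactions between gene loss and doxorubicin in osteosarcoma cells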 (primary screen)
Cell system: mouse osteosarcoma cells, early-passage culture from an engineered mouse model of fibroblastic bone tumour
Knock-down reagent: siRNA pool against mouse genes, 40 nM
Time to read-out: about 120 h (48 h before drug, then 72 h with drug)
Conditions: doxorubicin 100 nM for 72 h, roughly 30-40% inhibitory dose
Detection: 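Luminescent ATP signal taken as viability with or without 100 nM doxorubicin for 72 h; mean of two wells set against non-targeting siRNA and turned into robust z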
Reading the numbers: viability z-score with doxorubicin and doxorubicin viability vs non-targeting: higher = more viable cells under doxorubicin; viability z-score without drug: higher = more viable cells with knock-down alone; z-score of drug to no-drug ratio: higher = less drug sensitisation by knock-down
Call rule: 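Called active if knock-down leaves viability unchanged without drug (z within -2 to 2) but lowers it with doxorubicin (z at or under -2)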
This is one part, drawn at random, of about 17,000 reagents tested. 788 of them (4.7%) count as active. 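Calls rest on z-score classes alone; an extra cut-off of viability at most 70% of control was not applied to them.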 Reagent sequences are not shown.

no.	gene symbol	combined z-score class	viability z-score with doxorubicin	viability z-score without drug	z-score of drug to no-drug ratio	doxorubicin viability vs non-targeting	call
1	Cyp3a11 (cytochrome P450, family 3, subfamily a, polypeptide 11)	no change with or without drug	1.57	0.67	1.24	1.08	inactive
2	Pcdhb22 (protocadherin beta 22)	high cell count with and without drug	2.02	2.53	0.45	1.12	inactive
3	Trim65 (tripartite motif-containing 65)	no change with or without drug	0.34	1.01	-0.22	0.97	inactive
4	Onecut3 (one cut domain, family member 3)	no change with or without drug	-1.57	-0.84	-1.01	0.8	inactive
5	Xpnpep2 (X-prolyl aminopeptidase (aminopeptidase P) 2, membrane-bound)	no change with or without drug	-0.79	-1.52	0.34	0.87	inactive
6	Higd2a (HIG1 domain family, member 2A)	no change with or without drug	-0.9	0.17	-0.9	0.86	inactive
7	Cd244a (CD244 molecule A)	no change with or without drug	0.9	-0.51	1.46	1.02	inactive
8	Zfp954 (zinc finger protein 954)	no change with or without drug	-1.35	-0.17	-1.24	0.82	inactive
9	Galnt12 (polypeptide N-acetylgalactosaminyltransferase 12)	no change with or without drug	0	-0.17	0.22	0.94	inactive
10	Ppdpf	no change with or without drug	0.22	0.34	0.11	0.96	inactive
11	Thsd1 (thrombospondin, type I, domain 1)	high cell count with doxorubicin only	2.92	1.18	2.25	1.2	inactive
12	Syt16 (synaptotagmin XVI)	no change with or without drug	-0.45	-0.17	-0.22	0.9	inactive
13	Spata4 (spermatogenesis associated 4)	no change with or without drug	0.45	-0.67	1.12	0.98	inactive
14	Lingo4 (leucine rich repeat and Ig domain containing 4)	no change with or without drug	0	-0.51	0.45	0.94	inactive
15	Rfpl4 (ret finger protein-like 4)	low cell count with doxorubicin only	-2.14	-1.85	-1.01	0.75	active
16	Dusp21 (dual specificity phosphatase 21)	no change with or without drug	0.11	0.51	-0.11	0.95	inactive
17	Fam43a (family with sequence similarity 43, member A)	no change with or without drug	1.12	1.52	0.22	1.04	inactive
18	Sars2 (seryl-aminoacyl-tRNA synthetase 2)	no change with or without drug	0.67	0.51	0.45	1	inactive
19	Rbp7 (retinol binding protein 7, cellular)	no change with or without drug	-0.45	-0.84	0.22	0.9	inactive
20	Masp1 (MBL associated serine protease 1)	no change with or without drug	0	-0.17	0.22	0.94	inactive
21	Sprr2b (small proline-rich protein 2B)	no change with or without drug	0.22	0	0.34	0.96	inactive
22	Zfp112 (zinc finger protein 112)	no change with or without drug	1.12	0.51	0.9	1.04	inactive
23	Nanos1 (nanos C2HC-type zinc finger 1)	no change with or without drug	0.67	1.18	0	1	inactive
24	Trpv4	no change with or without drug	0.67	1.52	-0.22	1	inactive
25	Tprg1l (transformation related protein 63 regulated 1 like)	no change with or without drug	-0.67	1.85	-1.69	0.88	inactive
26	Cubn (cubilin)	no change with or without drug	0.45	-0.84	1.24	0.98	inactive
27	Snupn (snurportin 1)	no change with or without drug	-0.9	-0.17	-0.79	0.86	inactive
28	Nup43 (nucleoporin 43)	no change with or without drug	0.45	-1.18	1.46	0.98	inactive
29	Nrap (nebulin-related anchoring protein)	no change with or without drug	-1.24	-0.51	-0.9	0.83	inactive
30	Adam2 (a disintegrin and metallopeptidase domain 2)	no change with or without drug	-0.11	0.17	-0.11	0.93	inactive
31	Nhlrc1 (NHL repeat containing 1)	high cell count with and without drug	2.59	2.87	0.67	1.17	inactive
32	Ccnl2 (cyclin L2)	no change with or without drug	-1.57	0.17	-1.69	0.8	inactive
33	Cox6b2 (cytochrome c oxidase subunit 6B2)	no change with or without drug	-0.9	-1.18	0	0.86	inactive
34	Krt19 (keratin 19)	high cell count without drug only	-0.22	2.7	-1.69	0.92	inactive
35	Cfl1 (cofilin 1, non-muscle)	no change with or without drug	-0.79	-0.34	-0.45	0.87	inactive
36	Stxbp3 (syntaxin binding protein 3)	high cell count with doxorubicin only	2.36	0.84	1.91	1.15	inactive
37	Txndc15 (thioredoxin domain containing 15)	low cell count with doxorubicin only	-3.26	-0.17	-3.26	0.65	active
38	Pard3b (par-3 family cell polarity regulator beta)	no change with or without drug	-0.56	1.18	-1.24	0.89	inactive
39	Defb9 (defensin beta 9)	no change with or without drug	0.56	0.84	0.11	0.99	inactive
40	Sdad1 (SDA1 domain containing 1)	no change with or without drug	-0.67	-0.17	-0.45	0.88	inactive
41	Mtcl3 (MTCL family member 3)	no change with or without drug	-0.45	-1.01	0.34	0.9	inactive
42	Tmem161a (transmembrane protein 161A)	no change with or without drug	-1.12	-0.51	-0.79	0.84	inactive
43	Mkks (McKusick-Kaufman syndrome)	no change with or without drug	-0.45	1.52	-1.24	0.9	inactive
44	Rab5c (RAB5C, member RAS oncogene family)	no change with or without drug	0.45	-0.17	0.67	0.98	inactive
45	Vti1b (vesicle transport through interaction with t-SNAREs 1B)	high cell count without drug only	-1.12	2.7	-2.47	0.84	inactive
46	Tcf23 (transcription factor 23)	no change with or without drug	0.9	-0.51	1.46	1.02	inactive
47	Coro7 (coronin 7)	no change with or without drug	-1.12	0.17	-1.12	0.84	inactive
48	Ptafr (platelet-activating factor receptor)	high cell count with and without drug	2.36	2.02	1.01	1.15	inactive
49	Nfatc2ip	no change with or without drug	-0.9	1.35	-1.69	0.86	inactive
50	4931432E15Rik (RIKEN cDNA 4931432E15 gene)	no change with or without drug	1.12	1.85	0	1.04	inactive
51	Syt6 (synaptotagmin VI)	no change with or without drug	-1.8	-1.18	-1.01	0.78	inactive
52	Alpl (alkaline phosphatase, liver/bone/kidney)	low cell count with doxorubicin only	-2.47	-0.51	-2.25	0.72	active
53	Kmt5c (lysine methyltransferase 5C)	no change with or without drug	0.9	-0.17	1.24	1.02	inactive
54	Ptpn21 (protein tyrosine phosphatase, non-receptor type 21)	no change with or without drug	0.45	0.17	0.45	0.98	inactive
55	Vmn1r230 (vomeronasal 1 receptor 230)	no change with or without drug	0.34	1.52	-0.56	0.97	inactive
56	Nutf2 (nuclear transport factor 2)	no change with or without drug	1.12	-0.17	1.46	1.04	inactive
57	Prrt3 (proline-rich transmembrane protein 3)	no change with or without drug	-0.22	0.17	-0.22	0.92	inactive
58	Krtap12-1 (keratin associated protein 12-1)	no change with or without drug	-1.12	-1.18	-0.34	0.84	inactive
59	C2 (complement C2)	no change with or without drug	1.8	0.84	1.35	1.1	inactive
60	Ttc19 (tetratricopeptide repeat domain 19)	no change with or without drug	1.46	0.17	1.46	1.07	inactive
61	Serf2 (small EDRK-rich factor 2)	no change with or without drug	0.79	-0.17	1.01	1.01	inactive
62	Thap2 (THAP domain containing, apoptosis associated protein 2)	low cell count with doxorubicin only	-2.25	-1.18	-1.57	0.74	active
63	Syt15 (synaptotagmin XV)	no change with or without drug	-0.79	0.17	-0.79	0.87	inactive

No new results follow: 10 of the entries above.
no.	gene symbol	combined z-score class	viability z-score with doxorubicin	viability z-score without drug	z-score of drug to no-drug ratio	doxorubicin viability vs non-targeting	call
34	Krt19 (keratin 19)	high cell count without drug only	-0.22	2.7	-1.69	0.92	inactive
35	Cfl1 (cofilin 1, non-muscle)	no change with or without drug	-0.79	-0.34	-0.45	0.87	inactive
36	Stxbp3 (syntaxin binding protein 3)	high cell count with doxorubicin only	2.36	0.84	1.91	1.15	inactive
37	Txndc15 (thioredoxin domain containing 15)	low cell count with doxorubicin only	-3.26	-0.17	-3.26	0.65	active
38	Pard3b (par-3 family cell polarity regulator beta)	no change with or without drug	-0.56	1.18	-1.24	0.89	inactive
39	Defb9 (defensin beta 9)	no change with or without drug	0.56	0.84	0.11	0.99	inactive
40	Sdad1 (SDA1 domain containing 1)	no change with or without drug	-0.67	-0.17	-0.45	0.88	inactive
41	Mtcl3 (MTCL family member 3)	no change with or without drug	-0.45	-1.01	0.34	0.9	inactive
42	Tmem161a (transmembrane protein 161A)	no change with or without drug	-1.12	-0.51	-0.79	0.84	inactive
43	Mkks (McKusick-Kaufman syndrome)	no change with or without drug	-0.45	1.52	-1.24	0.9	inactive
